Results deposited as PubChem BioAssay AID1259425 (University of Nebraska Medical Center, 2018)
Here is a random part of about 14,000 deposited reagents. Not given: the time to read-out.

Assay: 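Seek colon cancer weak points whose silencing resembles KSR1 loss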 (primary screen)
Cells: HCT116 human colon cancer cells
Knock-down reagent: siRNA pool against human genes, 50 nM siRNA
Measurement: 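mRNA of six signature genes measured together by branched-DNA assay after 50 nM siRNA pool, blank removed, divided by geometric mean of two housekeeping genes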
Reading the numbers: BNIP3L mRNA: higher = more BNIP3L transcript after knockdown; NDRG1 mRNA: higher = more NDRG1 transcript after knockdown; BNIP3 mRNA: higher = more BNIP3 transcript after knockdown; ALDOC mRNA: higher = more ALDOC transcript after knockdown; ACSL5 mRNA: higher = more ACSL5 transcript after knockdown

| target gene | BNIP3L mRNA, set 1 | NDRG1 mRNA, set 1 | BNIP3 mRNA, set 1 | ALDOC mRNA, set 1 | ACSL5 mRNA, set 1 |
| --- | --- | --- | --- | --- | --- |
| ITGA1 (integrin subunit alpha 1) | 0.0976 | 0.191 | 0.255 | 0.0209 | 0.132 |
| BARHL1 (BarH like homeobox 1) | 0.143 | 0.325 | 0.249 | 0.0221 | 0.201 |
| FADS2 (fatty acid desaturase 2) | 0.184 | 0.134 | 0.284 | 0.0417 | 0.343 |
| PRDM2 (PR/SET domain 2) | 0.0755 | 0.0918 | 0.262 | 0.0114 | 0.234 |
| TXNL1 (thioredoxin like 1) | 0.0596 | 0.302 | 0.298 | 0.0189 | 0.0968 |
| ZNF557 (zinc finger protein 557) | 0.182 | 0.128 | 0.325 | 0.0461 | 0.183 |
| ABRAXAS2 (abraxas 2, BRISC complex subunit) | 0.257 | 0.24 | 0.492 | 0.0798 | 0.124 |
| DDX42 (DEAD-box helicase 42) | 0.187 | 0.296 | 0.362 | 0.0711 | 0.162 |
| EIF3FP2 | 0.127 | 0.249 | 0.373 | 0.0449 | 0.219 |
| USE1 (unconventional SNARE in the ER 1) | 0.283 | 0.584 | 0.353 | 0.0727 | 0.46 |
| CRYBA1 (crystallin beta A1) | 0.058 | 0.204 | 0.239 | 0.0216 | 0.15 |
| PA2G4 (proliferation-associated 2G4) | 0.0861 | 0.239 | 0.284 | 0.0194 | 0.135 |
| BTN3A3 (butyrophilin subfamily 3 member A3) | 0.387 | 0.24 | 0.309 | -0.0195 | 0.178 |
| REEP4 (receptor accessory protein 4) | 0.0507 | 0.246 | 0.283 | 0.0172 | 0.087 |
| GRID2 (glutamate ionotropic receptor delta type subunit 2) | 0.0663 | 0.122 | 0.373 | 0.018 | 0.0793 |
| GDA (guanine deaminase) | 0.123 | 0.108 | 0.394 | 0.0246 | 0.152 |
| NAT1 (N-acetyltransferase 1) | 0.0769 | 0.0888 | 0.297 | 0.0126 | 0.0825 |
| LINC01565 (long independently transcribed non-coding RNA 1565) | 0.0763 | 0.25 | 0.392 | 0.0235 | 0.117 |
| MAD2L1BP (MAD2L1 binding protein) | 0.117 | 0.167 | 0.232 | 0.00375 | 0.105 |
| SIX3 (SIX homeobox 3) | 0.168 | 0.0967 | 0.296 | 0.00501 | 0.234 |

Already shown: 3 of the entries above.
| target gene | BNIP3L mRNA, set 1 | NDRG1 mRNA, set 1 | BNIP3 mRNA, set 1 | ALDOC mRNA, set 1 | ACSL5 mRNA, set 1 |
| --- | --- | --- | --- | --- | --- |
| USE1 (unconventional SNARE in the ER 1) | 0.283 | 0.584 | 0.353 | 0.0727 | 0.46 |
| CRYBA1 (crystallin beta A1) | 0.058 | 0.204 | 0.239 | 0.0216 | 0.15 |
| PA2G4 (proliferation-associated 2G4) | 0.0861 | 0.239 | 0.284 | 0.0194 | 0.135 |
